Structures can show the parent of a compound that is named as a salt. Some of the results follow. The calls rarely recur for the same compound in another form.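 In K562 cells expressing nanoluciferase-fused kinases, luminescence was recorded at 4 h intervals between 2 and 18 h, normalized as percent of control with DMSO at 100% and a positive control at 0%. A significant (2 sigma) signal drop marks a time point as decreased. The authors' rule for a hit is not shown and takes in more than the number of time points.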
Legend:
Assay in all cases: number of time points (of 5) at which kinase-Nluc abundance scored as decreased, DMSO-normalised (count); higher = more persistent destabilization
Conditions in all cases: K562; 2-18 h
[1] = biological target: FLT3 (UniProt P36888)
[2] = biological target: FYN (UniProt P06241)
[3] = biological target: GSK3A (UniProt P49840)
[4] = biological target: HER2 (UniProt P04626)
[5] = biological target: INSRR (UniProt P14616)
[6] = biological target: IRAK3 (UniProt Q9Y616)
[7] = biological target: JAK1 (UniProt P23458)
[8] = biological target: LCK (UniProt P06239)
[9] = biological target: LIMK1 (UniProt P53667)
[10] = biological target: LIMK2 (UniProt P53671)
[11] = biological target: LMTK2 (UniProt Q8IWU2)
[12] = biological target: LYN (UniProt P07948)
[13] = biological target: MAP2K1 (UniProt Q02750)
[14] = biological target: MAP2K2 (UniProt P36507)
[15] = biological target: MAP4K2 (UniProt Q12851)
[16] = biological target: MAPK1 (UniProt P28482)
[17] = biological target: MAPK4 (UniProt P31152)
[18] = biological target: MAPKAPK2 (UniProt P49137)
[19] = biological target: MKNK1 (UniProt Q9BUB5)
[20] = biological target: NTRK2 (UniProt Q16620)

Sequences of proteins named here, by UniProt entry; tags and fusion partners are left off. A change or cut given only in a name is not applied to a line headed by its entry.
UniProt P36888, whole entry: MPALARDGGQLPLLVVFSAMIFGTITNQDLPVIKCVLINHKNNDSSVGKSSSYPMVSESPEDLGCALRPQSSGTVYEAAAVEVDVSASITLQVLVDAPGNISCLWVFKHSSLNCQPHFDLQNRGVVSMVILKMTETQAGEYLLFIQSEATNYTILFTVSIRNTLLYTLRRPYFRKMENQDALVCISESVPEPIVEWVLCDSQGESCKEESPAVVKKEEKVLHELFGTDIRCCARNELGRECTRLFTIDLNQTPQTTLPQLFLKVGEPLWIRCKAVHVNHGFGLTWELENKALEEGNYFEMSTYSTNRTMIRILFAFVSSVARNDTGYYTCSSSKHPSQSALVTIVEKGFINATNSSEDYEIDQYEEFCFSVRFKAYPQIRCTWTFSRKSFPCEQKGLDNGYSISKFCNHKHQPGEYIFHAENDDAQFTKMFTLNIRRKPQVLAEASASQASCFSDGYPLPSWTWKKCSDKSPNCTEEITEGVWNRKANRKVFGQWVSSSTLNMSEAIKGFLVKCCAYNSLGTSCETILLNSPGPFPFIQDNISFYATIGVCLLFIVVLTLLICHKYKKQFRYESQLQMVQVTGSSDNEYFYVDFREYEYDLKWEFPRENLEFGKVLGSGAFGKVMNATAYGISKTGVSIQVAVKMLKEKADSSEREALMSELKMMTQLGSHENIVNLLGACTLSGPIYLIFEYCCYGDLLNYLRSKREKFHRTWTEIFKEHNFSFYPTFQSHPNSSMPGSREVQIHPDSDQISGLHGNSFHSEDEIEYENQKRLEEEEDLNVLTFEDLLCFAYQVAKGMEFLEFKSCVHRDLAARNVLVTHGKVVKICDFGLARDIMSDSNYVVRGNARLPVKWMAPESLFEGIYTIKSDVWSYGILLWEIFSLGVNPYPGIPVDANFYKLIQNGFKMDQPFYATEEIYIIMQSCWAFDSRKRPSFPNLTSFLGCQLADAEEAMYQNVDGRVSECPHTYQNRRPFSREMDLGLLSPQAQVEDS
UniProt P06241, whole entry, looked up: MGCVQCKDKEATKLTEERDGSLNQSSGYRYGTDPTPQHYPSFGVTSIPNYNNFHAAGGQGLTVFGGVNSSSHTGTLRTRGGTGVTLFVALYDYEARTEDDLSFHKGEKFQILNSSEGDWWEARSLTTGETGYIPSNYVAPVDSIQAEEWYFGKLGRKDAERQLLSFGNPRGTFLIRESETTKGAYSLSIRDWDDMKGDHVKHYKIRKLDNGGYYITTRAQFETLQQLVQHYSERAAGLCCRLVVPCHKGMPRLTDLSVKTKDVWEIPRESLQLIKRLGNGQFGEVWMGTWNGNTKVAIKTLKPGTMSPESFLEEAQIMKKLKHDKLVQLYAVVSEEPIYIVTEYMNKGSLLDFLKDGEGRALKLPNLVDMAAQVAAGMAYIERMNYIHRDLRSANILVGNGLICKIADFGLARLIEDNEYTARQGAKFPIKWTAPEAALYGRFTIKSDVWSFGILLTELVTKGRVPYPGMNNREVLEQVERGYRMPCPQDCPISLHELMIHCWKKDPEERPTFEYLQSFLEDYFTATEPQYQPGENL
UniProt P14616: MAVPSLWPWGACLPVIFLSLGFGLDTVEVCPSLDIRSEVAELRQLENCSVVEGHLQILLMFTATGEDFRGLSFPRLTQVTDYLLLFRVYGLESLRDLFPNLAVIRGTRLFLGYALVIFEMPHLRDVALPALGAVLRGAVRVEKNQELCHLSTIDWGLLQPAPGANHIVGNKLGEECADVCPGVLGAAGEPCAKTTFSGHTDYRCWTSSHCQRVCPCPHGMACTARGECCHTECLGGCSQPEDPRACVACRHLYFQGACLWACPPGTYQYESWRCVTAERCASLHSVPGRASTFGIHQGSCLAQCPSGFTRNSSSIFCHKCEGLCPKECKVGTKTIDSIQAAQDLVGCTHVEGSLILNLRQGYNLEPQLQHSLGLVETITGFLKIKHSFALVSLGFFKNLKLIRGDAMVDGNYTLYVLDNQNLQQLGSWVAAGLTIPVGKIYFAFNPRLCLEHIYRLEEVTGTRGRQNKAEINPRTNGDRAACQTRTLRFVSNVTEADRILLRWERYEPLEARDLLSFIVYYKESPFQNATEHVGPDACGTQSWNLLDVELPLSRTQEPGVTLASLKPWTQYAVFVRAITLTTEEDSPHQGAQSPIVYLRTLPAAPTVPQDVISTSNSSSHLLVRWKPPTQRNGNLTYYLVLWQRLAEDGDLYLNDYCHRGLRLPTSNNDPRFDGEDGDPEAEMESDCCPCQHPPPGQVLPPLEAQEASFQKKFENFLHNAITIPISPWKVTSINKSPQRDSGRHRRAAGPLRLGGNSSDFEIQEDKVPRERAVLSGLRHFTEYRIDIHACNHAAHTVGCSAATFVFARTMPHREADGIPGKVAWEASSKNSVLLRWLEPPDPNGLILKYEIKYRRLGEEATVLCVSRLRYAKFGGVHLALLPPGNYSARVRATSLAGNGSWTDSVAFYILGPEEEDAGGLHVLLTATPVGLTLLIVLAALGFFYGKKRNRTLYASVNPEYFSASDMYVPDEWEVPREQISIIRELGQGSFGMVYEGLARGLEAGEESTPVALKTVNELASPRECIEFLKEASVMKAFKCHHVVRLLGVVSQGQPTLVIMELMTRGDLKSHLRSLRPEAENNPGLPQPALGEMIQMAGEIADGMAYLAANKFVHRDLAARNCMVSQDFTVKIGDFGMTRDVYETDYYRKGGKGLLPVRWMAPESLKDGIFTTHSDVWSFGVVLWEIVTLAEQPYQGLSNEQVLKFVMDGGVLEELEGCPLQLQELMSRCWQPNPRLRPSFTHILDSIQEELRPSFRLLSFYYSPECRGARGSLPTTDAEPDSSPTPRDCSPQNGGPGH
UniProt Q9Y616: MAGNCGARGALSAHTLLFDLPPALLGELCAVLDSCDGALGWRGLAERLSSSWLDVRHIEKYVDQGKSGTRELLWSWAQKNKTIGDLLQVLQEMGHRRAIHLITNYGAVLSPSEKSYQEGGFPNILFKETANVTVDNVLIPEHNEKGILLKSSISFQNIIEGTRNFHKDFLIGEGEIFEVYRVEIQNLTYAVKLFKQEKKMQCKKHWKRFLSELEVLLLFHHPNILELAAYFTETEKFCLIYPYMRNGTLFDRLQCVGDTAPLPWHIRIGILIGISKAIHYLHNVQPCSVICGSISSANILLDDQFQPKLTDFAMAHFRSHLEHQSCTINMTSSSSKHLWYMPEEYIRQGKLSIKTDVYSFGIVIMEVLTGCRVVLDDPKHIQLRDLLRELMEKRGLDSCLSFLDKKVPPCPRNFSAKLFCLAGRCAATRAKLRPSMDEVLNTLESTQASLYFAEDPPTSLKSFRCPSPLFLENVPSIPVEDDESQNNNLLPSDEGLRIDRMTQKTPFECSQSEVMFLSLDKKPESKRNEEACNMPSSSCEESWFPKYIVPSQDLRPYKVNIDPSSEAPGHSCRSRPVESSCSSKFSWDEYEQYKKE
UniProt P23458: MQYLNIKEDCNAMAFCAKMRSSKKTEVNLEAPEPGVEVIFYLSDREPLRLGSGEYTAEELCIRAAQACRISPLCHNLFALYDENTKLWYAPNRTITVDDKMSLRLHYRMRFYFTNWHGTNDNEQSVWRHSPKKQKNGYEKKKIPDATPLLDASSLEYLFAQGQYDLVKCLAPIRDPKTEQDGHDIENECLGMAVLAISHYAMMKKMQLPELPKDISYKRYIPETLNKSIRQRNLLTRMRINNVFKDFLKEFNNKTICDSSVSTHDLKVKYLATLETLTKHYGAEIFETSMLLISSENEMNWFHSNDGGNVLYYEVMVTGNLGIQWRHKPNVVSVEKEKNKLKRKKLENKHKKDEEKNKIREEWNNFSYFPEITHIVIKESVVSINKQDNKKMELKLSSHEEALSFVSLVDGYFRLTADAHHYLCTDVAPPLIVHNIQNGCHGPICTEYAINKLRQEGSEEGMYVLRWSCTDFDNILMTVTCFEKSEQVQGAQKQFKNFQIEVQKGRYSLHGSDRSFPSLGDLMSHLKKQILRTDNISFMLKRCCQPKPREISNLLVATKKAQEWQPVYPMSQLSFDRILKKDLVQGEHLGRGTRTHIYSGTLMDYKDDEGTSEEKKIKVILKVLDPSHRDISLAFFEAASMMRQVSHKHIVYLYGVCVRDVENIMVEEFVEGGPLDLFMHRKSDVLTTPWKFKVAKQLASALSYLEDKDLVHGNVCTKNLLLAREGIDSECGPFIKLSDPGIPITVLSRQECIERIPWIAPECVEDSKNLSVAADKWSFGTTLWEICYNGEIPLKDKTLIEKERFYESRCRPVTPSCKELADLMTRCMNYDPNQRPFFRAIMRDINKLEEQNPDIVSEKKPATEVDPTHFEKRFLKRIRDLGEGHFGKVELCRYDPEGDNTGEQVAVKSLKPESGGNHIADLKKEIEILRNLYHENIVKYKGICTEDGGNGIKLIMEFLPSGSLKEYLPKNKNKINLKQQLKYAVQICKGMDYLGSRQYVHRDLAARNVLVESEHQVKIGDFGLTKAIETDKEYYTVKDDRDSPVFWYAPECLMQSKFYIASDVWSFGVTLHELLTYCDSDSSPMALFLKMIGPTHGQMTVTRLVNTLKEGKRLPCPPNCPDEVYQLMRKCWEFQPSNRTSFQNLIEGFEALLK
UniProt P06239: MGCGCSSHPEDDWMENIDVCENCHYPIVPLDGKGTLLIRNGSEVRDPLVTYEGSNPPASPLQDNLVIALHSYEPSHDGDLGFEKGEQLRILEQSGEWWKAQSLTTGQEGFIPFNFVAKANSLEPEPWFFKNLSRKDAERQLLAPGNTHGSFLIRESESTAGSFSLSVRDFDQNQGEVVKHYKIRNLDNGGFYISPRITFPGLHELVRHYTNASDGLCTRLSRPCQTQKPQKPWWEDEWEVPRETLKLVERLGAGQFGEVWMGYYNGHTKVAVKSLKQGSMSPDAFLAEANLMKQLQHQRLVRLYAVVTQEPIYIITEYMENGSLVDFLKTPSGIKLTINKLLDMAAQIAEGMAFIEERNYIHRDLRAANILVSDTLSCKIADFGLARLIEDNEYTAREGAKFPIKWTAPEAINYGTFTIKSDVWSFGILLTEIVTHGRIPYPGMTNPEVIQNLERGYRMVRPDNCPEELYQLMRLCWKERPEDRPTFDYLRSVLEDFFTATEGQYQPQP
UniProt P53667: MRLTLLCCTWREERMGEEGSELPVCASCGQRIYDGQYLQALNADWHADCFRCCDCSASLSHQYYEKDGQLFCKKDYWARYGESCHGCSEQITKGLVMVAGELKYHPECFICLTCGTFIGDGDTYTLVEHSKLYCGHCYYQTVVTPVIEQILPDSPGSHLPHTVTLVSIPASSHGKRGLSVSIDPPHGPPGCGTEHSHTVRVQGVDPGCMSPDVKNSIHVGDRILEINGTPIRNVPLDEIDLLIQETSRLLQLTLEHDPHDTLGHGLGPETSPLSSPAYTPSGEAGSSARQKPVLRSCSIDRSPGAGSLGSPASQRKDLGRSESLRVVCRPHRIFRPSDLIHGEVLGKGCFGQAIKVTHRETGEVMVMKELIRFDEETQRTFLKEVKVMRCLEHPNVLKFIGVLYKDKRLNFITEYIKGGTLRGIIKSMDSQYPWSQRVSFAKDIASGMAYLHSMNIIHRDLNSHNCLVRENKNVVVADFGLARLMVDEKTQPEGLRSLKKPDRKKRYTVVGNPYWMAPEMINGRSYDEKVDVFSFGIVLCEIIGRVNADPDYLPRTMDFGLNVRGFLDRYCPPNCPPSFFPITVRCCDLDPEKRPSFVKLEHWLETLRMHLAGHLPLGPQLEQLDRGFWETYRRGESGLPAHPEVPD
UniProt P28482, whole entry: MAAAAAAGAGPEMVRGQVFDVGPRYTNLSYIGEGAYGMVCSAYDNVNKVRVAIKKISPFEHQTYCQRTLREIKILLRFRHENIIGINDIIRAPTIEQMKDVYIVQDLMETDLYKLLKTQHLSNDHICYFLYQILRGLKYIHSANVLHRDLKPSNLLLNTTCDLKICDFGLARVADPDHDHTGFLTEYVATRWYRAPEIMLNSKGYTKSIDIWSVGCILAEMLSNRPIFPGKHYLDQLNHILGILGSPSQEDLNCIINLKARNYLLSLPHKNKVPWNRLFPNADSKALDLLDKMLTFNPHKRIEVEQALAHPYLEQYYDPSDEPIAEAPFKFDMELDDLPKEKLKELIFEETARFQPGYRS
UniProt Q9BUB5: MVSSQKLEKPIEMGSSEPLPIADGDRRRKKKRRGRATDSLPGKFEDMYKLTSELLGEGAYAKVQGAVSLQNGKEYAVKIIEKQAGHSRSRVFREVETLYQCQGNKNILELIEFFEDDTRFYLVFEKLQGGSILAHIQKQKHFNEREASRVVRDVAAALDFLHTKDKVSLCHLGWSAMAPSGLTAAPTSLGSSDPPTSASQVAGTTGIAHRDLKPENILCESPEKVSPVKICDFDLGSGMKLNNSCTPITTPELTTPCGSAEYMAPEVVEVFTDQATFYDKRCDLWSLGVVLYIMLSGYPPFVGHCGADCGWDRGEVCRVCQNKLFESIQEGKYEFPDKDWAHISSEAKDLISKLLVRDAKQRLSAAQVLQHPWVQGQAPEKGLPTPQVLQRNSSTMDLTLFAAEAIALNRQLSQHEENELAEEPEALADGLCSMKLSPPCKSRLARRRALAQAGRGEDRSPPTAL

| SMILES | number of time points [1] | number of time points [2] | number of time points [3] | number of time points [4] | number of time points [5] | number of time points [6] | number of time points [7] | number of time points [8] | number of time points [9] | number of time points [10] | number of time points [11] | number of time points [12] | number of time points [13] | number of time points [14] | number of time points [15] | number of time points [16] | number of time points [17] | number of time points [18] | number of time points [19] | number of time points [20] |
| --- | --- | --- | --- | --- | --- | --- | --- | --- | --- | --- | --- | --- | --- | --- | --- | --- | --- | --- | --- | --- |
| CC(C)(C)S(=O)(=O)c1cc2c(Nc3ccc4scnc4c3)ncnc2cc1OCCOP(=O)(O)O (2 µM) | 0 | 0 | 0 | 0 | 0 | 0 | 0 | 0 | 0 | 0 | 0 | 0 | 0 | 0 | 0 | 0 | 0 | 0 | 0 | 0 |
| S=C(NCc1ccc2c(c1)OCO2)N1CCN(c2ncnc3c2oc2ccccc23)CC1 [Amuvatinib] (2.5 µM) | 0 | 0 | 0 | 0 | 0 | 0 | 0 | 0 | 0 | 0 | 0 | 0 | 0 | 0 | 0 | 0 | 0 | 0 | 0 | 0 |
| CN(C)c1ccc(/C=C2\C(=O)Nc3ccccc32)c2ccccc12 (10 µM) | 0 | 0 | 2 | 0 | 0 | 0 | 0 | 0 | 0 | 0 | 0 | 1 | 0 | 0 | 0 | 0 | 0 | 0 | 0 | 0 |
| COc1cc2c(cc1OC)[C@@H]1C(=O)c3ccc4c(c3O[C@@H]1CO2)C=CC(C)(C)O4 [Deguelin] (10 µM) | 0 | 0 | 0 | 0 | 0 | 0 | 0 | 0 | 0 | 0 | 1 | 0 | 0 | 0 | 0 | 0 | 0 | 0 | 0 |  |
| Fc1ccc(Cl)cc1-c1nc(Nc2ccncc2)c2nccnc2n1 (10 µM) | 0 | 0 | 0 | 0 | 0 | 0 | 0 | 0 | 0 | 0 | 0 | 0 | 0 | 0 | 0 | 0 | 0 | 0 | 0 | 0 |
| O=C(CCl)c1c[nH]c2ccccc12 (2.5 µM) | 0 | 0 | 0 | 0 | 0 | 0 | 0 | 0 | 0 | 0 | 0 | 0 | 0 | 0 | 0 | 0 | 0 | 0 | 0 | 0 |
| COc1cc2nc(NC3CC3)nc(NC3CCN(C(C)C)CC3)c2cc1OC (10 µM) | 0 | 3 | 0 | 0 | 0 | 0 | 0 | 0 | 2 | 0 | 0 | 1 | 0 | 0 | 0 | 0 | 0 | 0 | 0 | 0 |
| NC(=O)c1c(NC(=O)C2CC2)sc2c1CCCC2 (10 µM) | 0 | 0 | 0 | 0 | 0 | 0 | 0 | 0 | 0 | 0 | 0 | 0 | 0 | 0 | 0 | 0 | 0 | 0 | 0 | 0 |
| Nc1ccc(C(=O)Nc2cccc(-c3nc(N4CCOCC4)c4oc5ncccc5c4n3)c2)cn1 (10 µM) | 3 | 0 | 0 | 0 | 0 | 0 | 0 | 0 | 0 | 0 | 0 | 0 | 0 | 0 | 0 | 0 | 0 | 0 | 5 | 0 |
| Cn1cc(-c2nc(N[C@@H]3CCCC[C@@H]3N)c(F)c3c2C(=O)NC3)cn1 [TAK-659 (hydrochloride)] (2 µM) | 0 | 0 | 0 | 0 | 0 | 0 | 0 | 0 | 0 | 0 | 0 | 0 | 0 | 0 | 0 | 0 | 0 | 0 | 0 | 0 |
| Cn1c(N2CCO[C@@H](c3ccc(F)cc3)C2)nc(-c2ccncn2)cc1=O (10 µM) | 0 | 0 | 0 | 0 | 0 | 0 | 0 | 0 | 0 | 0 | 0 | 0 | 0 | 0 | 0 | 0 | 0 | 0 | 0 | 0 |
| CN1CCC(Nc2ccc(C(=O)Nc3cc(-c4ccc5c(c4)OCO5)[nH]n3)cc2)CC1 (10 µM) | 0 | 4 | 0 | 0 | 0 | 0 | 4 | 0 | 3 | 0 | 0 | 0 | 0 | 0 | 0 | 0 | 0 | 0 | 0 | 0 |

Two entries from above, as tab-separated lines.
SMILES	number of time points [1]	number of time points [2]	number of time points [3]	number of time points [4]	number of time points [5]	number of time points [6]	number of time points [7]	number of time points [8]	number of time points [9]	number of time points [10]	number of time points [11]	number of time points [12]	number of time points [13]	number of time points [14]	number of time points [15]	number of time points [16]	number of time points [17]	number of time points [18]	number of time points [19]	number of time points [20]
CN(C)c1ccc(/C=C2\C(=O)Nc3ccccc32)c2ccccc12 (10 µM)	0	0	2	0	0	0	0	0	0	0	0	1	0	0	0	0	0	0	0	0
COc1cc2c(cc1OC)[C@@H]1C(=O)c3ccc4c(c3O[C@@H]1CO2)C=CC(C)(C)O4 [Deguelin] (10 µM)	0	0	0	0	0	0	0	0	0	0	1	0	0	0	0	0	0	0	0	
